Laboratory results: PubChem BioAssay AID493246 (Drosophila RNAi Screening Center, 2011)
Assay: 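Genes fly cells need to grow and stay alive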 (primary screen). System: Drosophila Kc and S2R+ cells. Knock-down reagent: long dsRNA against Drosophila genes. Read-out: 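Raw, unnormalised count of remaining cells in each well; per-plate z-scores of cell number underlie the calls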. Scale: Kc cell number and S2R+ cell number: higher = more cells remaining. Rule for the call: 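Active when the per-plate z-score of cell number is 3 or more in the direction of fewer cells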.
The screen tested about 21,000 reagents; this is a random part of those that have a named target and a result. Over the whole deposit, 429 (2%) were called active. 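Values are raw and not normalised between plates; calls rest on per-plate z-scores that were not deposited.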 Entries without a mark were called inactive. The numbers tell different reagents against one gene apart. Not stated in the record: the amount of reagent, the time to read-out.

| predicted target | dsRNA no. | Kc cell number, rep 1 | Kc cell number, rep 2 | S2R+ cell number, rep 1 | S2R+ cell number, rep 2 |
| --- | --- | --- | --- | --- | --- |
| CG7691 | 1 | 1.26e6 | 1.40e6 | 1.09e6 | 1.15e6 |
| CG31198 | 1 | 1.49e6 | 1.54e6 | 1.20e6 | 1.29e6 |
| klg (klingon) | 1 | 1.61e6 | 1.60e6 | 1.08e6 | 1.28e6 |
| klg (klingon) | 2 | 1.63e6 | 1.57e6 | 8.60e5 | 1.04e6 |
| CG11980 | 1 | 1.47e6 | 1.55e6 | 1.16e6 | 1.27e6 |
| CG5421 | 1 | 1.57e6 | 1.67e6 | 1.35e6 | 1.42e6 |
| CG15708 | 1 | 1.47e6 | 1.52e6 | 1.11e6 | 1.23e6 |
| sbm (sobremesa) | 1 | 1.52e6 | 1.51e6 | 1.06e6 | 1.16e6 |
| Ssrp (Structure specific recognition protein) | 1 | 1.33e6 | 1.47e6 | 6.98e5 | 7.60e5 |
| emei | 1 | 1.54e6 | 1.55e6 | 1.04e6 | 1.17e6 |
| Dlip1 (Dorsal interacting protein 1) | 1 | 1.71e6 | 1.62e6 | 1.08e6 | 1.21e6 |
| nvy (nervy) | 1 | 1.58e6 | 1.64e6 | 1.06e6 | 1.17e6 |
| CG33777 | 1 | 1.66e6 | 1.72e6 | 9.96e5 | 1.21e6 |
| CG15093 | 1 | 1.42e6 | 1.49e6 | 1.25e6 | 1.32e6 |
| CG1578 | 1 | 6.11e5 | – | 7.99e5 | – |
| CCDC53 (Coiled-coil domain containing 53) | 1 | 1.57e6 | 1.63e6 | 1.14e6 | 1.30e6 |
| CG34334 | 1 | 1.45e6 | 1.48e6 | 1.12e6 | 1.25e6 |
| Reg-5 (Rhythmically expressed gene 5) | 1 | 1.31e6 | 1.28e6 | 7.94e5 | 9.45e5 |
| Rox8 | 1 | 1.51e6 | 1.48e6 | 9.90e5 | 1.04e6 |
| CG12715 | 1 | 1.51e6 | 1.51e6 | 1.04e6 | 1.13e6 |
| Su(P) (Suppressor of ref(2)P sterility) | 1 | 1.58e6 | 1.68e6 | 1.22e6 | 1.39e6 |
| Ir94a (Ionotropic receptor 94a) | 1 | 1.51e6 | 1.49e6 | 1.05e6 | 1.10e6 |
| Ppa (Partner of paired) | 1 | 1.63e6 | 1.68e6 | 1.24e6 | 1.39e6 |
| Parp1 (Poly-(ADP-ribose) polymerase 1) | 1 | 5.34e5 | – | 7.71e5 | – |
| Parp1 (Poly-(ADP-ribose) polymerase 1) | 2 | 1.56e6 | 1.43e6 | 1.05e6 | 1.34e6 |
| Parp1 (Poly-(ADP-ribose) polymerase 1) | 3 | 1.66e6 | 1.60e6 | 1.06e6 | 1.30e6 |
| OtopLc (Otopetrin-like c) | 1 | 1.49e6 | 1.48e6 | 1.03e6 | 1.11e6 |
| OtopLc (Otopetrin-like c) | 2 | 1.49e6 | 1.44e6 | 1.01e6 | 1.15e6 |
| OtopLc (Otopetrin-like c) | 3 | 1.50e6 | 1.50e6 | 1.01e6 | 1.15e6 |
| CG13075 | 1 | 1.39e6 | 1.51e6 | 1.28e6 | 1.34e6 |
| Pex19 (Peroxin 19) | 1 | 1.37e6 | 1.48e6 | 1.28e6 | 1.34e6 |
| Obp83a (Odorant-binding protein 83a) | 1 | 1.58e6 | 1.71e6 | 1.24e6 | 1.46e6 |
| CG32026 | 1 | 1.40e6 | 1.52e6 | 1.12e6 | 1.23e6 |
| a10 (antennal protein 10) | 1 | 1.41e6 | 1.70e6 | 1.43e6 | 1.52e6 |
| CG1105 | 1 | 1.71e6 | 1.87e6 | 1.50e6 | 1.53e6 |
| CG17508 | 1 | 1.41e6 | 1.22e6 | 9.95e5 | 1.30e6 |
| prt (portabella) | 1 | 1.54e6 | 1.55e6 | 9.76e5 | 1.08e6 |
| orb2 | 1 | 1.35e6 | 1.44e6 | 1.21e6 | 1.18e6 |
| orb2 | 2 | 1.55e6 | 1.38e6 | 1.30e6 | 1.23e6 |
| orb2 | 3 | 1.45e6 | 1.66e6 | 1.23e6 | 1.25e6 |
| phyl (phyllopod) | 1 | 1.50e6 | 1.57e6 | 1.14e6 | 1.28e6 |
| Pde8 (Phosphodiesterase 8) | 1 | 1.48e6 | 1.50e6 | 1.12e6 | 1.17e6 |
| lolal (lola like) | 1 | 1.42e6 | 1.48e6 | 1.08e6 | 1.08e6 |
| Jabba | 1 | 1.40e6 | 1.45e6 | 1.31e6 | 1.49e6 |
| CG12680 | 1 | 1.55e6 | 1.59e6 | 1.07e6 | 1.21e6 |
| CG31145 | 1 | 1.15e6 | 1.46e6 | 1.08e6 | 1.11e6 |
| CG31145 | 2 | 1.64e6 | 1.57e6 | 9.31e5 | 1.03e6 |
| CG31145 | 3 | 9.90e5 (active) | 1.19e6 | 5.90e5 | 7.01e5 |
| CG31145 | 4 | 1.69e6 | 1.64e6 | 9.01e5 | 1.01e6 |
| CG34296 | 1 | 1.27e6 | 1.39e6 | 1.10e6 | 1.19e6 |
| ich (ichor) | 1 | 1.47e6 | 1.59e6 | 1.09e6 | 1.33e6 |
| ich (ichor) | 2 | 1.55e6 | 1.76e6 | 1.30e6 | 1.40e6 |
| Grip163 | 1 | 1.36e6 | 1.52e6 | 1.25e6 | 1.32e6 |
| Cul1 (Cullin 1) | 1 | 1.35e6 | 1.39e6 | 9.42e5 | 1.01e6 |
| Scamp | 1 | 1.64e6 | 1.62e6 | 1.01e6 | 1.14e6 |
| CG31883 | 1 | 1.45e6 | 1.45e6 | 1.08e6 | 1.10e6 |
| CG1690 | 1 | 1.89e6 | 2.03e6 | 1.36e6 | 1.54e6 |
| vn (vein) | 1 | 1.57e6 | 1.44e6 | 1.02e6 | 1.02e6 |
| CG9890 | 1 | 1.59e6 | 1.65e6 | 1.37e6 | 1.50e6 |
